Common to all, as to experiment: affinity purification with mass spectrometry; GFP-Trap or HA-antibody bead pulldown against control beads from nuclear extract of parasite lines with the bait endogenously tagged; dimethyl labelling, label swap; FDR < 10% in at least two reactions
Assay [1] concerns the target 3xHA-tagged PHD1 expressed from the endogenous locus (P. falciparum (endogenous in 3D7 parasites)) (UniProt Q8IJW2).
Assay [2] concerns the target TAF1/BDP5-AID-GFP (P. falciparum (endogenous in 3D7 parasites)) (UniProt Q8I581).
For assay [3], the target named is endogenous PHD2 with a C-terminal GFP-tag (P. falciparum (endogenous in 3D7 parasites)) (UniProt Q8ILC9).
Assay [4] concerns the target T1, endogenously GFP-tagged BDP4 (P. falciparum (endogenous in 3D7 parasites)) (UniProt Q8IK82).
T1 sequence: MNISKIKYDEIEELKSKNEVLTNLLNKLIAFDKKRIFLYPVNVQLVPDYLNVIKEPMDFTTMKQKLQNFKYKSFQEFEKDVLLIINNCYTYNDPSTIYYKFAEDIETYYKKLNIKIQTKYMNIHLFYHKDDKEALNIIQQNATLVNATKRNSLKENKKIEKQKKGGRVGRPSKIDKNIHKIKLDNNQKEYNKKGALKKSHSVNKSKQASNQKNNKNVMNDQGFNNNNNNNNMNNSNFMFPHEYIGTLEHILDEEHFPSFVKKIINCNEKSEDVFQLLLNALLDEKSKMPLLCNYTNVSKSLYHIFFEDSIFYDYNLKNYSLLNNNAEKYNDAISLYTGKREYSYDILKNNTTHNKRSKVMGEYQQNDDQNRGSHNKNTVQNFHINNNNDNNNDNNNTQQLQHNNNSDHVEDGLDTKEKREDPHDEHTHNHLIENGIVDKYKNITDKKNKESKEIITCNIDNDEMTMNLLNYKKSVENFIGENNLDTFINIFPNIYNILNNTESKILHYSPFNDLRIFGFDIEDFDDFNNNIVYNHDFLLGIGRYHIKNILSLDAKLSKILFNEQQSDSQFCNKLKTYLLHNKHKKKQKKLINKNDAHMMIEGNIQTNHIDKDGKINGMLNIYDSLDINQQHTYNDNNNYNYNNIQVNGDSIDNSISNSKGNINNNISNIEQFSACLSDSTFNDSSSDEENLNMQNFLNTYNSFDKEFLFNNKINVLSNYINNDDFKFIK

The chains behind the UniProt entries cited, without tags or fusion partners.
UniProt Q8I581: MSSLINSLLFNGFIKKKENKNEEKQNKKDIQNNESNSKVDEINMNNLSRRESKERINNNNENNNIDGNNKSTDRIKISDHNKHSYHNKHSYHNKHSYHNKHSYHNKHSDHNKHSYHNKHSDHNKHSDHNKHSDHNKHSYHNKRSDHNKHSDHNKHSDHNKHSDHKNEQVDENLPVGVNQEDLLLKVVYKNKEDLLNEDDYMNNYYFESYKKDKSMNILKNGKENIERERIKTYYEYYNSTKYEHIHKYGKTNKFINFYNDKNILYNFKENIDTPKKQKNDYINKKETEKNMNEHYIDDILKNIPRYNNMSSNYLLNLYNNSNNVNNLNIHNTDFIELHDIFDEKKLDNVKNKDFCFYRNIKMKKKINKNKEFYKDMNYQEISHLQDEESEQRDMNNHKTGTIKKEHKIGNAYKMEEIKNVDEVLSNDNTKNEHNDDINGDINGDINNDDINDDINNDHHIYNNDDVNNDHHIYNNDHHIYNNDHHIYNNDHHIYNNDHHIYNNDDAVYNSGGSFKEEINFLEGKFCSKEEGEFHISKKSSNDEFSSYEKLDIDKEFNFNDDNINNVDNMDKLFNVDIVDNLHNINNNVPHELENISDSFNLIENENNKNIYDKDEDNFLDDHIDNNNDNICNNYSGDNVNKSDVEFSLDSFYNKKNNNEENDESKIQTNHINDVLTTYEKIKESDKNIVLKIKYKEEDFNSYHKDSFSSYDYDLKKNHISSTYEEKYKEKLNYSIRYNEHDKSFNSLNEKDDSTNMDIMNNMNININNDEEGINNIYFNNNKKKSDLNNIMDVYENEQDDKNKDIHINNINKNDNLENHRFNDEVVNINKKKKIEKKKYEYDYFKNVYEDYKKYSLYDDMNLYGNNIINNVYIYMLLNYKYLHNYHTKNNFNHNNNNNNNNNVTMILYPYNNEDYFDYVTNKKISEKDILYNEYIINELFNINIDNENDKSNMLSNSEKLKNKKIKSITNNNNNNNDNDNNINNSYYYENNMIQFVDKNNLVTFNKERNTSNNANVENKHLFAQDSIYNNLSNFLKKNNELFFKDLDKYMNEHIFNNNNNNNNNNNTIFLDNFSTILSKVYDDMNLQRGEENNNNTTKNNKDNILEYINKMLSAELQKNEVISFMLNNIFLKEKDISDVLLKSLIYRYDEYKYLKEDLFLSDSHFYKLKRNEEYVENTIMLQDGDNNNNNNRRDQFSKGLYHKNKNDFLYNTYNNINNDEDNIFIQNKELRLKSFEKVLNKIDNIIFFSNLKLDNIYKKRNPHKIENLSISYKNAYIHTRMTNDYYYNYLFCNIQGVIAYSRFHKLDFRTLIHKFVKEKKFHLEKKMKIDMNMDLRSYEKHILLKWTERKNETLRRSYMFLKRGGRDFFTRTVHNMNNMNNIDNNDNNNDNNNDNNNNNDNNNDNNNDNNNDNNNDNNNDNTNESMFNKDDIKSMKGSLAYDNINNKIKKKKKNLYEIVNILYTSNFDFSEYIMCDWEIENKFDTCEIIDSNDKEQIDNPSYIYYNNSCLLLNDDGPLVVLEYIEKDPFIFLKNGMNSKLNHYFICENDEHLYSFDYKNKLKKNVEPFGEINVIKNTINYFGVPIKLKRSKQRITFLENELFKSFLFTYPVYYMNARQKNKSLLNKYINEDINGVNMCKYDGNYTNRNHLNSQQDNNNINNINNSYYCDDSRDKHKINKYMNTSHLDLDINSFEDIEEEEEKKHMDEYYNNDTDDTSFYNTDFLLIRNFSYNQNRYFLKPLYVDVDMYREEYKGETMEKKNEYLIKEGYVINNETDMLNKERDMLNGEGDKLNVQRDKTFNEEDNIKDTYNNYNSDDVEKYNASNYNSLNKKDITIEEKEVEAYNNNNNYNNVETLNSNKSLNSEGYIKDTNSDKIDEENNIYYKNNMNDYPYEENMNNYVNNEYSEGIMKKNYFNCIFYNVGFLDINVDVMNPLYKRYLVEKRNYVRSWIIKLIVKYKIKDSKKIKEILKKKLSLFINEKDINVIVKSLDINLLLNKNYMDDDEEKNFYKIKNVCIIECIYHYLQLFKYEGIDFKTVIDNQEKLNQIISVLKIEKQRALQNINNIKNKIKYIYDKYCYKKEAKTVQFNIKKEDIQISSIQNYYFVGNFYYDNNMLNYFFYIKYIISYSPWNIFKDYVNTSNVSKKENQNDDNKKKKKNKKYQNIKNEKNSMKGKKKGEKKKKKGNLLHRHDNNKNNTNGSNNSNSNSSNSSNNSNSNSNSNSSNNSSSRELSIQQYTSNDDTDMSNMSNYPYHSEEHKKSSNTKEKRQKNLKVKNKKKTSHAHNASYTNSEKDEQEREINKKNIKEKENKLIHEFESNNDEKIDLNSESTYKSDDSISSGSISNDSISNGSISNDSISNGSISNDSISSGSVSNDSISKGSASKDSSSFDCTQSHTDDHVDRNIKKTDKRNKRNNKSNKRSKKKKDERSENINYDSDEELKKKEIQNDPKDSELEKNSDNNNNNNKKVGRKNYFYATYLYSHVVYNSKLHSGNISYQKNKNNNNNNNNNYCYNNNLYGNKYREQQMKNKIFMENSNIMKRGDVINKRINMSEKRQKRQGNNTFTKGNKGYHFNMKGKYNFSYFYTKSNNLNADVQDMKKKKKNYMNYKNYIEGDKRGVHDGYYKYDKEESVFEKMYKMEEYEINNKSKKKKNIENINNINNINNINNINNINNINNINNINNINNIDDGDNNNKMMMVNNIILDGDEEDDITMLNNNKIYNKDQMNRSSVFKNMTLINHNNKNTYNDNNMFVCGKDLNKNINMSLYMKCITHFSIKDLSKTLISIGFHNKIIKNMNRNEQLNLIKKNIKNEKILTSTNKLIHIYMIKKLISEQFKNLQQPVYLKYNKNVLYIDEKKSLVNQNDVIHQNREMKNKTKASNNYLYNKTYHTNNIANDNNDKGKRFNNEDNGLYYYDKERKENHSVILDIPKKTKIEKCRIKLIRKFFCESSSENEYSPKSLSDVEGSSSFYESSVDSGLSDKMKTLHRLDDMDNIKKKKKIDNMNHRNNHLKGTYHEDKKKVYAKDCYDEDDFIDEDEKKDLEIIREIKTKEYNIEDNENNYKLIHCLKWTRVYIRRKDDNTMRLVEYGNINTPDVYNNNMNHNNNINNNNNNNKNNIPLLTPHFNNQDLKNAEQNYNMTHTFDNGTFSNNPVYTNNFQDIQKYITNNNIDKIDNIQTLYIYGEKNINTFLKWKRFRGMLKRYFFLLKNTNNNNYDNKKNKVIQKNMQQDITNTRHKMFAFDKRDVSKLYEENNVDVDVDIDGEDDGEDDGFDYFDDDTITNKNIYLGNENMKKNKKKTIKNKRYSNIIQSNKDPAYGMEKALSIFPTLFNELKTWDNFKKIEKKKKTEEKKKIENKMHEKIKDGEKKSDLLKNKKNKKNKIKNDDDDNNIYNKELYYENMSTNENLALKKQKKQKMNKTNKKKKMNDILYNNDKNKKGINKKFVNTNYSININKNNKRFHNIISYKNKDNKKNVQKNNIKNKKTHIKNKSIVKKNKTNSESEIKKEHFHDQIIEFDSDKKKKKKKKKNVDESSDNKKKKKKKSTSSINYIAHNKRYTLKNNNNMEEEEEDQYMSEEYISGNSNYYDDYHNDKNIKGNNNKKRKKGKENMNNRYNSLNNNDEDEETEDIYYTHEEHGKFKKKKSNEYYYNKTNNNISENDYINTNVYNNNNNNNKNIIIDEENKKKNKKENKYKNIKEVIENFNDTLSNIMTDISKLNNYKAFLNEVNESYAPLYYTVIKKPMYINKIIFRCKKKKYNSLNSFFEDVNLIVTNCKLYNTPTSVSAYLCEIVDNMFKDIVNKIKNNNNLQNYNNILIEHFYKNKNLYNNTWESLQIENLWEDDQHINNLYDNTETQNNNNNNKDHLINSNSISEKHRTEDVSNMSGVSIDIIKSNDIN
UniProt Q8IB67: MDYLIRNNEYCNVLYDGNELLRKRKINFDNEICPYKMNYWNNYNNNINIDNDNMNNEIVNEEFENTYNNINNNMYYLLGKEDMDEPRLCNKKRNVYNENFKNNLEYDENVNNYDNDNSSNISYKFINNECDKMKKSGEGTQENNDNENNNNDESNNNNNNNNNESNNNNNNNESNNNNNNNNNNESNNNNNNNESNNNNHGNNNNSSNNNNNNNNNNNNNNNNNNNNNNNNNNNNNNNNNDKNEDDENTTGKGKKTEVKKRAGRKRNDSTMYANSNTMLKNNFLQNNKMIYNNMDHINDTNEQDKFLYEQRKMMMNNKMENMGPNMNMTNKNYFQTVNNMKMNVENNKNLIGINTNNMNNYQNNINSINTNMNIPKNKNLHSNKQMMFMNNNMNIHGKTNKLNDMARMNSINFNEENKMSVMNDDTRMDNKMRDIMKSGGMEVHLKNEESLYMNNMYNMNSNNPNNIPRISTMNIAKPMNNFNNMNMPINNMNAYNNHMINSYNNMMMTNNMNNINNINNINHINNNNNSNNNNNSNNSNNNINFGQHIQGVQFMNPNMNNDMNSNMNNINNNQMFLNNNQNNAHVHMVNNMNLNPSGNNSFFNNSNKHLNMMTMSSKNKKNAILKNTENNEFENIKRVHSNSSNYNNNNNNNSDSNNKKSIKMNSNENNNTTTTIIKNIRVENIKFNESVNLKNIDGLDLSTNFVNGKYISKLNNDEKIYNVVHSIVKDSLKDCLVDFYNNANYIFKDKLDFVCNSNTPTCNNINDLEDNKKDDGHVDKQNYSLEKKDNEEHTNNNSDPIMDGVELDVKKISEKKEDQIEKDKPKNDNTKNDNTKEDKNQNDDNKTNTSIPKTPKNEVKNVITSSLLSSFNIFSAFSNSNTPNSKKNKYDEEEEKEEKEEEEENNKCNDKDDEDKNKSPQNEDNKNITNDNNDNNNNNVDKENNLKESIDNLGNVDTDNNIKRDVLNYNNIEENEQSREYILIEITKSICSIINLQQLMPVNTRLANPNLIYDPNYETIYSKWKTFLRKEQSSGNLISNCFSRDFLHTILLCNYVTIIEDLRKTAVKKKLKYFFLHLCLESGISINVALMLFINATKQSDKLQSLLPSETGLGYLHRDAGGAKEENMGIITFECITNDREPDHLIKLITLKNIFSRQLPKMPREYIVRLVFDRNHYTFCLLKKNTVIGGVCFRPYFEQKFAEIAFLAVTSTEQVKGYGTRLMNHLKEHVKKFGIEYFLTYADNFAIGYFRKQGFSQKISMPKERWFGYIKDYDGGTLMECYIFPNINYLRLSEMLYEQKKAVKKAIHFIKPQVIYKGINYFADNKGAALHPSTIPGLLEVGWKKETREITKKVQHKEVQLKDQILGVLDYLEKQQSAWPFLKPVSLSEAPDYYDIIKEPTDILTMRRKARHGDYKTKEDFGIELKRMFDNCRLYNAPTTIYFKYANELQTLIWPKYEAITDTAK

The target in assay [5] is GFP-tagged GCN5 expressed from the endogenous locus (P. falciparum (endogenous in 3D7 parasites)) (UniProt Q8IB67).
For assay [6], the target named is T1, endogenously GFP-tagged BDP4 (P. falciparum (endogenous in 3D7 parasites)). The source holds these as a separate data set.
The target in assay [7] is TAF1/BDP5-AID-GFP (P. falciparum (endogenous in 3D7 parasites)) (UniProt Q8I581). This is another data set of the same source.
Assay [8] deals with T2, endogenously GFP-tagged BDP1 (P. falciparum (endogenous in 3D7 parasites)) (UniProt Q8IJ72).
T2 sequence: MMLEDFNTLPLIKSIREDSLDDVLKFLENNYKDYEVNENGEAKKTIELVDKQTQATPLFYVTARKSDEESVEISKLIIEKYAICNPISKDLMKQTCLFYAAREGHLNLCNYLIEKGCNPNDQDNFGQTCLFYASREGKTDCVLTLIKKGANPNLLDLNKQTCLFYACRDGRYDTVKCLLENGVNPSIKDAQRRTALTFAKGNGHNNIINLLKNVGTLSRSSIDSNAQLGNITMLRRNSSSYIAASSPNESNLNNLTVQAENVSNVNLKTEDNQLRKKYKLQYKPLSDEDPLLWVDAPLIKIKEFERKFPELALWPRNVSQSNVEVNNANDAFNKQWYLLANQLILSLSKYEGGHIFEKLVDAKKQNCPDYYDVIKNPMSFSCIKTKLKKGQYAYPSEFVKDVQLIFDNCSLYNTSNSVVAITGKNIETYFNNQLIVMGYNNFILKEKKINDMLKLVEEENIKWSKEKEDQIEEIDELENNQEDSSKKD

Like-named read-outs stand apart in the source and are kept apart here. Results are given in words; binding and its absence hold for the method and conditions named. In cells and extracts the contact can be indirect. These calls come from enrichment with a bait or labelling near it, and not all partners need be listed. For part of these data: No binding means not detected with the bait. For part of these data: Where a sequence is shown, tags or fusion partners need not be part of it.

Turning to ADA2 (from UniProt Q8IJP9), in assay [1], the binding result was “binds”.
In the case of “WD-repeat protein PF3D7_1138800 (from UniProt Q8IHX6 1-1920)”, the binding result in assay [2] is “binds”.
GCN5 (from UniProt Q8IB67 1-1465): in assay [1], the binding entry is “binds”.
As to “protein with unknown function PF3D7_1402800 (from UniProt Q8IM62 1-1511)”, the binding entry in assay [3] is recorded as “no binding”; in assay [1], “binds”.
As for BDP3 (from UniProt Q8I240 1-2285), the binding entry in assay [2] is on record as “binds”.
Regarding HMDB3, the binding entry in assay [4] is recorded as “binds”.
On to “PhD-finger containing protein PHD2 (from UniProt Q8ILC9 1-5757)”, for which, in assay [5], the binding result was “binds”.
Take CHD1 (from UniProt Q8IJG6 1-3328): in assay [4], the binding result was “binds”.
In the case of PF3D7_1361200 (from UniProt Q8ID94), the binding entry in assay [2] was “binds”.
On to “PhD-finger protein PHD1 (from UniProt Q8IJW2 1-3853)”, for which the binding result in assay [3] was “binds weakly”; in assay [5], “binds”.
SWIB: the binding result in assay [4] is “binds”.
Consider “transcription factor AP2-I (from UniProt Q8IJW6 1-1597)”, for which the binding entry in assay [4] was “binds”.
On the same count and under the same terms, for PF3D7_1128000 the value was “binds”.

B1: PF3D7_1225200 (protein, UniProt Q8I5G5 1-1187)
chain: MNYNEINDNTMMNTNDINHPSHLNNEKNDLSNEENYMNIYDNNNNIIIDNEVDDHLKEEYNNIGEGSPEGANNIISDNNKIHSIHNNNNNNNNNYNNNIVNNTFGMSINGNENVNNKDINNIHEEIHSNNVESFENLDDYKVNNIIHNVNNLINNEELLMNNINNNNHINEDLSSLNLNITQDNNVNNLINPNIGINNNKKVKNKNKNKLLKHMNNNVINETTNVSFENNKKNNINENFLAQNHNYYDNNMVNNMGYNYPTFNNNNNNNNNNMYNENMGFIPNNQFMHPQVYHPKLVAENKNKGKNKINPNIYINNYNMNNDNFNNKSSNLLYKNIKMNNIEQKKKKKMIHLKTDAAQISSVESTSEDMNYSNEYGSQKKHVEFKETNDPLILHPSTSYIRNIVIKKPSNIRNSIHNLNLYNVNSMTFDSYYTNKNGTNIINKNGANVINKNGTNIINKNGTNIINKNGTNIINKNESNTNDRNNNIILNTDQTNSEHNNMENIINNPSHRIYKPPVFISKYIKDMNEDELNDIYTLLNDQIIKSEENDKAINYVKNEIINLYKQNPIQLLTLQKCLSLIKANRNIIEVMFYILENNKLINMQCDPQYYNTYINNTSYLNYQTVNNIYKHCKNESSYGNHNNYNELMSNNMYNGTSDSYGNLINGDDTSMMGGHDGESTSSKLCSKKYNQISHINNNNNNNSNNNNNSNNNNNSNNNNNSNRNHNNNNNNNNNHNNNNNNNNNNNHNSCYGNIYNLHNDINILCDPLSNKLEWNNNEHIQTKESIRHNSKSPNYYNNYNYKCISCDKICENTYYILKPTNIKRISYGVVDKCIWCSVCYNSSNYPNVLNSSNFVKVNIPYNLSNNDWNINEIEKLIEGVCKFKNNWEQISEYIQTKTPYECIYKFISMPLSNPYFDLNNLYDINNISLNSYEQNNTLLSLLSFICNNISPYVGAYAAKKIVDYILEKQKEENEKEKKEQIKENDNHHNGDDTNKMGHHNEEIIDHAYQKEEEKNNINEQNGENVNEINVNNNNNNSNNLNDDNINNNDHLTLPNENNNISNNNEIKNEGNMENNMEVNNVNNNNQINDNNSVPNNTNDSMKKKPSTYILKDDDMKIIHDTIIKSSKKRSRELANLEEHNLKKLLKELVLLNTRKVQLKLKQHEYLQKYFEYQNEFMVNKGKNENETK
B1: the binding entry in assay [6] is listed as “binds”.

B2: bromodomain protein 1 (protein, UniProt Q8IJ72 1-488)
chain: T2 sequence
B2: the binding entry in assay [7] and in assay [6] was “binds” throughout.

B3: bromodomain protein 2 (protein, UniProt Q8I5S4 1-1088)
chain: MNDYNNINNQLLIDTSSGMEHITIENNNNCIINNIDNIDYNNKTTNHIIKNNDSIISYKNNNMSSINNLIDIDNNGTSINNEFQQKNYNNNNIISDNKNMNYFSSFSNENTIDDNGNDTNYMNYDDNMNNSEYTNNHNNNHNNNHNNINSNDHNDDNLKNNNQCNSMNITDEYMSDNNISKNNSTSNILEYHINDNNNNNNINFIKKEEIIKNMDDLFIKNVNDIRSFERGILNLTQEEFIYISNKIHFLGFRFIEIPCVKTKNEKRNTYTAISKRHLNEIKNLSCSLSNSIYDAGKRKSKKTFDPFYSKAEFDSKGTYAQHDQKDTKDTNKKKAQTNNNVNNNNNNDYVNEKDIKNANIKEESHNLNSTKGNNKGTNNTYHNNNSIKSQQESDKLTSTSKGVKRSASNKFDDFDNKHNNKNVHGGSTNLGTNNSTPTHNNSNTGKGKGSKNTNSNNKKINEKESMKKRQKTNSYNEDNLMDEYEQHKKTYKKKIYRTKNPWKNYCFKILHKLKKKEIACWFLKPVNPELDGIPNYFNVIKNPMDFETIENKLINNKYNNPFEWQHDVRQIFFNAFTYHKVKNCVWNDAYKLAKEFDKLIKQGNDVKNILKDCTKNINSVYFNMKQYNDLIEHTNNTNNIINHNNISKTITNTSSDDHSGSLSSSSSSSSSISSSNYDDEAYDNVSSVNYNKRDSQMHKNVHGKKSSMYMTSASTNTLKNNLNSNQIYFPHGKNKKNEKMNKSSKYSINNNNNNNNISNKKNIRDNIKNKKDVNSNTLDDDDFEPPNVGTIPEPPGIQKIGINDKGLNNYQVNLLFKNFKRLAPNQRKAALEIIQDDLGILAENHMFDRFFTFDTDLLSIEKQKRIFLYINHMGRINLEHYKSSLISANKVNNSSFSKGKMGQKIVHNKSFIKHGSNNSNINAHYEKRRTNRYVSSSSNSSDSSTSNSSDSSSFSTSSDDSDSDSDSDMDSDSYDKKRKIKRPFPNDKKKELSNKFLEANRRKTLPQYKPVNENRKSLQIRDDVMGMHADFLGSMDSPRNTKNKHRASVSAWPEWKGQVIQQAILTQHKTNVPINKKELIAEGYDAKI
On to B3, for which the binding entry in assay [7], in assay [8] and in assay [6] was “binds” throughout.

(Values after paper PMC7145593.)
